Results on one substance are retold here after paper PMC2967473, “PP2A1 Binding, Cell Transducing and Apoptotic Properties of Vpr77–92: A New Functional Domain of HIV-1 Vpr Proteins” (PLoS ONE, 2010).

No constants are given. Whether binding was seen depends on the method and setting. For some assays here: A result given as binding can be weak or reduced; the word gives no strength.

In test [1] the target is T1, 89.6-Vpr dodecapeptide 39 (cellulose-bound) (HIV-1 (89.6 isolate)).
T1 sequence (peptide): RHSRIGIIQQRR
In words: peptide or protein array; both purified.

Test [2] has as its target T2, 89.6-Vpr dodecapeptide 31 (cellulose-bound) (HIV-1 (89.6 isolate)).
T2 sequence (peptide): IRILQQLLFIHF
Kind of test: peptide or protein array; both purified.

Test [3] deals with T3, 89.6-Vpr dodecapeptide 32 (cellulose-bound) (HIV-1 (89.6 isolate)).
T3 sequence (peptide): ILQQLLFIHFRI
Kind of test: peptide or protein array; both purified.

The target in test [4] is T4, 89.6-Vpr dodecapeptide 29 (cellulose-bound) (HIV-1 (89.6 isolate)).
T4 sequence (peptide): VEALIRILQQLL
In words: peptide or protein array; both purified.

For test [5], the target named is T5, 89.6-Vpr dodecapeptide 40 (cellulose-bound) (HIV-1 (89.6 isolate)).
T5 sequence (peptide): SRIGIIQQRRTR
Kind of test: peptide or protein array; both purified.

Test [6] concerns the target T6, 89.6-Vpr dodecapeptide 30 (cellulose-bound) (HIV-1 (89.6 isolate)).
T6 sequence (peptide): ALIRILQQLLFI
In words: peptide or protein array; both purified.

The target of test [7] is T7, 89.6-Vpr dodecapeptide 41 (cellulose-bound) (HIV-1 (89.6 isolate)).
T7 sequence (peptide): IGIIQQRRTRNG
Kind of test: peptide or protein array; both purified.

Test [8] addresses T8, Recombinant full length Vpr-T protein encoded by the HIV-1 (89.6 isolate) (HIV-1 (89.6 isolate)).
T8 sequence: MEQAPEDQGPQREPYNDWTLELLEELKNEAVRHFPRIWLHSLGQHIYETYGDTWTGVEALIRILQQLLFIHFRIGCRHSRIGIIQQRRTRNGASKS
Kind of test: affinity chromatography; Vpr-T held on a 1 mL nickel-charged iminodiacetic acid-Sepharose-4B column; 16 µg PP2A1 loaded in buffer C (25 mM TrisHCl pH 7.4, 50 mM NaCl, 0.1 mM EDTA), 10 mL wash, 18 mL linear gradient to 1 M NaCl; fractions assayed for phosphorylase a phosphatase activity; both purified.

As to “trimeric PP2A1 holoenzyme purified from pig brain (complex)”, the binding result in test [1] is recorded as “binds”; in test [2], “no binding”; in test [3], “no binding”; in test [4], “no binding”; in test [5], “binds”; in test [6], “no binding”. Moreover, the binding entry in test [7] and in test [8] was “binds” throughout.
